According to PubChem BioAssay AID2685 (National Center for Advancing Translational Sciences (NCATS), 2010):
The list shows a part of the results. These are further read-outs of the screen, such as a control signal, another cell line or another target. No call is given for them. Most of these compounds were active or inconclusive in the main read-out, so they are no random draw. Potencies come from curve fits of mixed quality, noted in brackets.

Assay: qHTS Assay for Lipid Storage Modulators in Drosophila S3 Cells;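 for cell number change: cells counted by Cell Tracker Red CMTPX staining in the red channel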
Settings: BODIPY lipid droplet fluorescence, 18-24 h; for cell number change: measured here: cell count max response, cells fed with added oleic acid
Outline: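 Drosophila S3 cells loaded with oleic acid (400 uM, as added) and compounds at several concentrations; lipid droplets imaged by 488-nm laser-scanning cytometry, 500–530 nm intensity and object ratio to cell channel. Percent activity normalized to 20 uM Triacsin C.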

[1] = measured here: cell number channel AC50, cells fed with added oleic acid
[2] = measured here: lipid fluorescence (Fed channel) AC50, cells fed with added oleic acid

Cc1cccc(-n2c(C)cc(/C=C3\C(=N)N4N=C(CC(C)C)SC4=NC3=O)c2C)c1
AC50 [1]: 3.26 µM [rising, partial curve, poor fit]

Cc1nn(C)c2ncc(C(N)=O)c(Oc3ccc(Cl)cc3)c12
cell number change: 21.4% | AC50 [1]: 0.103 µM [rising, full curve, poor fit]

Cc1ccc(N(CC(=O)NCCc2ccccc2)C(=O)c2csnn2)cc1
cell number change: 26.7% | AC50 [1]: 0.0461 µM [rising, full curve, poor fit] | AC50 [2]: 1.3 µM [rising, partial curve]

COc1cc(CCC(=O)N2CCN(c3ncccn3)CC2)cc(OC)c1OC
cell number change: -21.7% | AC50 [1]: 0.0517 µM [falling, full curve, poor fit]

CCN(CC)c1ccc(N=Cc2ccccc2[N+](=O)[O-])cc1
cell number change: -38.7% | AC50 [1]: 13 µM [falling, partial curve, poor fit] | AC50 [2]: 14.6 µM [falling, single point]

CC1(C)Cn2c(nnc2-c2ccccc2)S1
cell number change: 13.8% | AC50 [2]: 29.1 µM [falling, single point]

O=C(O)CCN1C(=O)C(=C2CCCCCC2)SC1=S
cell number change: 7.1% | AC50 [1]: 6.51 µM [rising, single point]

CCNc1nc(N)nc(Oc2ccc(OCCOc3ccc(Cl)cc3Cl)nn2)n1
cell number change: 8.31% | AC50 [2]: 2.91 µM [rising, single point]

O=C(/C=C/c1ccc(O)c(O)c1)NC(=O)c1ccccc1O
cell number change: -17.2%

O=C(CSc1nnc(-c2ccncc2)n1Cc1ccccc1)Nc1nccs1
cell number change: -6.42% | AC50 [2]: 0.92 µM [falling, partial curve, poor fit]

O=C(NNC(=O)c1ccccc1Cl)c1ccccc1Cl
cell number change: -55.5% | AC50 [1]: 11.6 µM [falling, single point] | AC50 [2]: 23.1 µM [falling, single point]

O=C(Nc1ccccc1)N(Cc1ccccc1)Cc1ccccc1
cell number change: -28.8% | AC50 [2]: 2.31 µM [falling, partial curve]

O=C(Nc1cccc(Cl)c1N1CCOCC1)c1cccnc1Cl
cell number change: -17.2% | AC50 [2]: 29.1 µM [falling, single point]

Nc1nonc1-n1nnc(C(=O)N/N=C/c2cccnc2)c1CSc1ccccc1
cell number change: -7.46% | AC50 [2]: 1.64 µM [rising, partial curve]

C#CCOCCOCCOCCNc1nc(N2CCN(C(=O)CCCCCCCCCCNC(=O)[C@H]([C@@H](C)CC)n3cc(CCCCN=C(N)N)nn3)CC2)nc(N2CCN(C(=O)CCCCCCCCCCNC(=O)[C@H]([C@@H](C)CC)n3cc(CCCCN=C(N)N)nn3)CC2)n1
cell number change: -87% | AC50 [1]: 5.8 µM [falling, partial curve] | AC50 [2]: 4.11 µM [falling, single point]
